Measured values as given in PubChem BioAssay (EPA / NIEHS).
Several values for one entry are separate records, joined by “and”; a condition that tells them apart may be missing. Identical values can stand only once. The inconclusive results got no clear call from the source; some entries with a clear call stand among them for comparison. For some assays here: Potencies of inconclusive entries are doubtful fits and often do not repeat. More than one record can exist for a structure, and the calls need not agree. Activity calls are given as the source filed them. The calls were made as follows: active = hit-call score of the fitted dose curve at least 0.9, where 1 is the maximum; inconclusive = response in the unintended direction; inactive = score below 0.9.

Sequences of proteins named here, by UniProt entry; tags and fusion partners are left off. A change or cut given only in a name is not applied to a line headed by its entry.
UniProt P04386, whole entry, looked up: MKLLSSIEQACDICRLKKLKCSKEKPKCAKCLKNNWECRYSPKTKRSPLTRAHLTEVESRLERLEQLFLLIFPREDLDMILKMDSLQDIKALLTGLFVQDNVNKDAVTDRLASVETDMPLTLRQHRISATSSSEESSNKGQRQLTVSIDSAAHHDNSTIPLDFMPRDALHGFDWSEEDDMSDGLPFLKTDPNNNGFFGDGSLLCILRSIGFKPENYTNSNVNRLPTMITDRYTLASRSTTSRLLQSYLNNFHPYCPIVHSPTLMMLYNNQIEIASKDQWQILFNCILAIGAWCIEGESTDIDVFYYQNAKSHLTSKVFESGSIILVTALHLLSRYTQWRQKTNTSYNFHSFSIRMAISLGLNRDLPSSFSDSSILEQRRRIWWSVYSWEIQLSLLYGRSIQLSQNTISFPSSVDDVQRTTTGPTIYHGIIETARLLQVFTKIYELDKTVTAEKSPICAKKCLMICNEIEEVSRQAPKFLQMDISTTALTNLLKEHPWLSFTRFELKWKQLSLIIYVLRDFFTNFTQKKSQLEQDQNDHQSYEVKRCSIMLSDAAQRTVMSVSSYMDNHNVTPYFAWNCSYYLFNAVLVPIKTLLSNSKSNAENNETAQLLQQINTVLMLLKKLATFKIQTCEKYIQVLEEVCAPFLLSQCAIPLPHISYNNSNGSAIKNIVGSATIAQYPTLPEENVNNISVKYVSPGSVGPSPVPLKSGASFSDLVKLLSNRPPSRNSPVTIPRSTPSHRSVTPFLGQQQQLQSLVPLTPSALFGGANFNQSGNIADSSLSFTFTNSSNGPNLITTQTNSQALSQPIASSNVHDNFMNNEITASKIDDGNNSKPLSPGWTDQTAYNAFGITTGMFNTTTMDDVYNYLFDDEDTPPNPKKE
UniProt P10275: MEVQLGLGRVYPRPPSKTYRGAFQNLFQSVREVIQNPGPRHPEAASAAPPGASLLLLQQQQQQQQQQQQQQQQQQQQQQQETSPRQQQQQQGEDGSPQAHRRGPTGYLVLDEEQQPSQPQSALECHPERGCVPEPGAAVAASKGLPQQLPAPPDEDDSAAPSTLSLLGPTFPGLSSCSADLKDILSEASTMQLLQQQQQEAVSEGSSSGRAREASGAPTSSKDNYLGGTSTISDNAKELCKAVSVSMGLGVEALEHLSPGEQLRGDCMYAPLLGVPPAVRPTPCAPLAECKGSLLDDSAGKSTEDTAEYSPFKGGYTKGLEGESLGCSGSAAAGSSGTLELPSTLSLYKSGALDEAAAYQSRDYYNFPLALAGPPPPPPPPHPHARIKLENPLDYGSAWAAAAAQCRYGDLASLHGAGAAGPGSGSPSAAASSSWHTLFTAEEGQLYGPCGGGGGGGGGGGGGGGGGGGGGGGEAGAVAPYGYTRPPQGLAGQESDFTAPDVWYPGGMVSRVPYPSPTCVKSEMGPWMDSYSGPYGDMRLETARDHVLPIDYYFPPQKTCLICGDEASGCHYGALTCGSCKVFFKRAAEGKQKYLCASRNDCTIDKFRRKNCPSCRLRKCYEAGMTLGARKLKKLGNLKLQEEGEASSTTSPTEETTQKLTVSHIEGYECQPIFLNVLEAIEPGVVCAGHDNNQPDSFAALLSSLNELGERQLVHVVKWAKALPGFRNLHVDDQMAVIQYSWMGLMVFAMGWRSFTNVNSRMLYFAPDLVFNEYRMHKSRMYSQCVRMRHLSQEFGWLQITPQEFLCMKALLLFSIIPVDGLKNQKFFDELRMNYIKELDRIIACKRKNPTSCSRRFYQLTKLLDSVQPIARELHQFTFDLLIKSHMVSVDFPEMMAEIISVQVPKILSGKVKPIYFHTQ
UniProt Q9PVE4: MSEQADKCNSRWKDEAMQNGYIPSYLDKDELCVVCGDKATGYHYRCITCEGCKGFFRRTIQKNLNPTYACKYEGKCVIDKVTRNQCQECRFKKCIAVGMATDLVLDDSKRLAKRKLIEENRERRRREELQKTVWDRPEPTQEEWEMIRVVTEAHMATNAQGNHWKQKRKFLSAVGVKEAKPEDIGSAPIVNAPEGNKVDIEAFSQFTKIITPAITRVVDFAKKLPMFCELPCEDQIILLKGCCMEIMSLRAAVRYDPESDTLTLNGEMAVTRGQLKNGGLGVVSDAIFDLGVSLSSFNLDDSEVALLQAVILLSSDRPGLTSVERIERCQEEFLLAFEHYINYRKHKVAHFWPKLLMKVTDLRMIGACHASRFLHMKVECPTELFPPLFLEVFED
UniProt P57717: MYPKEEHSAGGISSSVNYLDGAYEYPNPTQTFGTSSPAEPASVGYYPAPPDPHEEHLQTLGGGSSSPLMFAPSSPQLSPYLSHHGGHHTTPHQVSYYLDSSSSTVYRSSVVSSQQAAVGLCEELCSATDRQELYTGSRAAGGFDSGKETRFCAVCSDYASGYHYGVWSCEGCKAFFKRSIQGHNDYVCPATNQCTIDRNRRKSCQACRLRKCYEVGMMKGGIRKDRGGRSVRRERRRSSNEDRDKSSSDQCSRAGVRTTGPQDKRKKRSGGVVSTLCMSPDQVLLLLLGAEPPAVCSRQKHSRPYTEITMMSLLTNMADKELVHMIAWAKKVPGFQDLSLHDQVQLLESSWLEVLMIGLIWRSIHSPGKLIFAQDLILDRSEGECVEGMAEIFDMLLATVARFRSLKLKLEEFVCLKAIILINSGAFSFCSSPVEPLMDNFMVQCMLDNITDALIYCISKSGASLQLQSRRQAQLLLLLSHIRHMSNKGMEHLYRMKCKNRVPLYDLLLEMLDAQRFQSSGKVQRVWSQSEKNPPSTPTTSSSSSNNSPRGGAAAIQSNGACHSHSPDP
UniProt Q98867: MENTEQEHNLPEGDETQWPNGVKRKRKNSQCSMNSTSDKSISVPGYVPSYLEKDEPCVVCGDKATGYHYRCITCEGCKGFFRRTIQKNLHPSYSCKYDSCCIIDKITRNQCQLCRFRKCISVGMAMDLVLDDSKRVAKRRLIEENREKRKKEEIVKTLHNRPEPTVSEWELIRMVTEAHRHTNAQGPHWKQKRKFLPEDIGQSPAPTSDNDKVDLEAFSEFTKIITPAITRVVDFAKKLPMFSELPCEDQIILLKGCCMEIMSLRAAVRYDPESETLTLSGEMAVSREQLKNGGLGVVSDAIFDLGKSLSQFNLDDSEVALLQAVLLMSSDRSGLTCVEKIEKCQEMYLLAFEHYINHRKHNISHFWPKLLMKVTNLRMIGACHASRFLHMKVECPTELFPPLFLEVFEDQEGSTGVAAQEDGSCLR
UniProt P06212, whole entry, looked up: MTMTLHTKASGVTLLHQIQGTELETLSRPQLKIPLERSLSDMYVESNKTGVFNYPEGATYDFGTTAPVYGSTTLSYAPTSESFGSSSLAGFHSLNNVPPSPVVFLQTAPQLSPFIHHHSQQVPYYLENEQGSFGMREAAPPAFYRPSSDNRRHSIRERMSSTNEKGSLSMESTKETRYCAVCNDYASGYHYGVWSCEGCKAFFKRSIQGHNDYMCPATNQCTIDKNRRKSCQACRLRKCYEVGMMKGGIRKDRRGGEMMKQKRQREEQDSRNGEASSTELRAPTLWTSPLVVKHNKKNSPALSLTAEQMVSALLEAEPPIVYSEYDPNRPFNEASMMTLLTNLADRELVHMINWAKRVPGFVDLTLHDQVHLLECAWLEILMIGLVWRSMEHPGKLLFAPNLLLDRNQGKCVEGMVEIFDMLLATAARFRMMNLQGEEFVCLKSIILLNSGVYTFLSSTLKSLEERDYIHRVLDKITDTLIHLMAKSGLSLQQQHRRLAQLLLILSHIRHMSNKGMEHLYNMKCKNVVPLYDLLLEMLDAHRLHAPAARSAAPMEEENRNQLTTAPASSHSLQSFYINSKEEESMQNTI

What was measured:
[1] = target: GAL4 Transcription Factor (Internal Marker), GAL4 (gene 855828) (UniProt P04386); experiment: ATG_GAL4_XSP2: Attagene TRANS-FACTORIAL Multi-Species (XSP2) HepG2 Assay for GAL4 Transcription Factor (Internal Marker) (AID 2283814);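 also: GAL4 reporter mRNA background control in MRTU transfected cells not a receptor target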
Method in brief: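 Background-control readout: gain-of-signal fitted against DMSO. After 24 h exposure of transfected HepG2 (MRTU, GAL4-UAS reporters; 3 nM 6-alpha-fluorotestosterone, 1.5 nM norgestrel present), transcripts quantified by RT-PCR and capillary electrophoresis fluorescence.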

[2] = tested on: chicken Androgen Receptor (AR), gene 422165; experiment: ATG_chAR_XSP2: Attagene TRANS-FACTORIAL Multi-Species (XSP2) HepG2 Assay for chicken Androgen Receptor (AR) (AID 2283819);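 also: hits raise reporter mRNA above DMSO so potency is for activation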
Method in brief: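 Readout is reporter mRNA induction via RT-PCR/capillary electrophoresis after 24 h chemical exposure, positive direction relative to DMSO. Transiently transfected HepG2 express chimeric chicken AR–GAL4; AR stimulated by 3 nM 6-alpha-fluorotestosterone and 1.5 nM norgestrel.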

[3] = target: human Androgen Receptor (AR), AR (gene 367) (UniProt P10275); experiment: ATG_hAR_XSP2: Attagene TRANS-FACTORIAL Multi-Species (XSP2) HepG2 Assay for human Androgen Receptor (AR) (AID 2283820)
Method in brief: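 Reporter transcripts were measured by RT-PCR and capillary electrophoresis 24 h post-dosing, with gain of signal fitted against DMSO. Transiently transfected HepG2 cells expressed chimeric NR-Gal4 on GAL4-UAS reporters, with AR stimulated by 3 nM 6-alpha-fluorotestosterone and 1.5 nM norgestrel.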

[4] = tested on: frog Estrogen Receptor (ER), gene 398734; experiment: ATG_frER1_XSP2: Attagene TRANS-FACTORIAL Multi-Species (XSP2) HepG2 Assay for frog Estrogen Receptor (ER) (AID 2283821);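 also: hits raise reporter mRNA above DMSO baseline so potency means agonist or activator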
Method in brief: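 Reporter mRNA induction, detected as fluorescence after RT-PCR and capillary electrophoresis, is the endpoint; activity is fitted upward against DMSO. Cells are human liver HepG2 carrying transfected NR-Gal4 chimeras with GAL4-UAS-driven reporters, harvested 24 h post-dosing.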

[5] = tested on: frog Androgen Receptor (AR), gene 399456; experiment: ATG_frAR_XSP2: Attagene TRANS-FACTORIAL Multi-Species (XSP2) HepG2 Assay for frog Androgen Receptor (AR) (AID 2283824);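 also: reporter mRNA from GAL4-UAS units driven by Xenopus AR-Gal4 chimera; actives raise reporter signal above DMSO so AC50 reflects agonist-like induction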
Method in brief: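 Reporter transcript induction, read by RT-PCR with fluorescent capillary electrophoresis, in human liver HepG2 cells carrying an exogenous Xenopus AR-Gal4 fusion and GAL4-driven reporters; chemical exposure 24 hours, activity scored upward against DMSO controls.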

[6] = ATG_M_32_XSP2: Attagene TRANS-FACTORIAL Multi-Species (XSP2) HepG2 Assay for M19 Transcription Factor (Internal Marker) (AID 2283826)
Method in brief: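 Read-out: reporter mRNA quantified by RT-PCR, FAM labeling, HpaI digestion and capillary electrophoresis, 24 h after dosing transfected HepG2 cells. Medium carried 3 nM 6-alpha-fluorotestosterone plus 1.5 nM norgestrel; gain of signal fitted against DMSO.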

[7] = tested on: zebrafish Peroxisome Proliferator-activated Receptor gamma (PPARg), gene 557037; experiment: ATG_zfPPARg_XSP2: Attagene TRANS-FACTORIAL Multi-Species (XSP2) HepG2 Assay for zebrafish Peroxisome Proliferator-activated Receptor gamma (PPARg) (AID 2283833);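 also: reporter mRNA from a zebrafish PPARg GAL4 chimera measured by RT-PCR and capillary electrophoresis; actives increase reporter signal over DMSO so AC50 reflects activation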
Method in brief: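 After 24 h chemical exposure, RNA from transiently transfected HepG2 (chimeric NR-Gal4 TRANS reporters) was reverse-transcribed, PCR-amplified, 6-FAM-labelled, HpaI-cut and sized by capillary electrophoresis. Induction was scored in the positive direction relative to DMSO.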

[8] = target: zebrafish Thyroid Hormone Receptor beta (TRb), thrb (gene 30607) (UniProt Q9PVE4); experiment: ATG_zfTRb_XSP2: Attagene TRANS-FACTORIAL Multi-Species (XSP1) HepG2 Assay for zebrafish Thyroid Hormone Receptor beta (TRb) (AID 2283836);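 also: potency for induction of reporter signal above DMSO so agonist direction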
Method in brief: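 Multiplexed trans-activation in HepG2 cells, 24 h treatment, with reporter mRNA read by RT-PCR and capillary electrophoresis. Gain-of-signal against DMSO.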

[9] = target: zebrafish Estrogen Receptor (ER1), esr1 (gene 259252) (UniProt P57717); experiment: ATG_zfER1_XSP2: Attagene TRANS-FACTORIAL Multi-Species (XSP2) HepG2 Assay for zebrafish Estrogen Receptor (ER1) (AID 2283816)
Method in brief: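 After 24 h compound exposure, RNA from transfected HepG2 cells was reverse-transcribed and reporter transcripts resolved by capillary electrophoresis. The TRANS format reads exogenous zebrafish ER1-Gal4 chimera activity on GAL4-UAS elements; gain of signal against DMSO.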

[10] = target: zebrafish Thyroid Hormone Receptor alpha (TRa), thraa (gene 30670) (UniProt Q98867); experiment: ATG_zfTRa_XSP2: Attagene TRANS-FACTORIAL Multi-Species (XSP1) HepG2 Assay for zebrafish Thyroid Hormone Receptor alpha (TRa) (AID 2283832);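 also: actives raise zebrafish TRa-Gal4 reporter transcript above DMSO baseline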
Method in brief: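 Multiplexed TRANS reporter format in HepG2; the medium also contained 3 nM 6-alpha-fluorotestosterone and 1.5 nM norgestrel. Reporter mRNA after 24 h read by RT-PCR and capillary electrophoresis, scored as induction over DMSO.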

[11] = tested on: turtle Thyroid Hormone Receptor, alpha (TRa), gene 101949057; experiment: ATG_trTRa_XSP2: Attagene TRANS-FACTORIAL Multi-Species (XSP1) HepG2 Assay for turtle Thyroid Hormone Receptor, alpha (TRa) (AID 2283834);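 also: hits raise reporter mRNA over the DMSO baseline so AC50 marks activators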
Method in brief: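 Turtle TRa-Gal4 chimera activity in transfected human HepG2 cells: reporter transcripts quantified by RT-PCR, 6-FAM labelling and capillary electrophoresis 24 h post-dosing; positive direction versus DMSO, medium containing 3 nM 6-alpha-fluorotestosterone and 1.5 nM norgestrel.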

[12] = target: chicken Estrogen Receptor (ERa), ESR1 (gene 396099) (UniProt P06212); experiment: ATG_chERa_XSP2: Attagene TRANS-FACTORIAL Multi-Species (XSP2) HepG2 Assay for chicken Estrogen Receptor (ERa) (AID 2283817);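 also: actives raise reporter signal above DMSO so AC50 reflects ER activation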
Method in brief: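 Readout: fluorescent reporter-transcript fragments resolved by capillary electrophoresis after RT-PCR and HpaI cut. Chicken ERa-Gal4 fusion in transiently transfected HepG2, dosed for 24 h; activity taken as increase over DMSO baseline.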

[13] = tested on: frog Estrogen Receptor (ER2), gene 100174814; experiment: ATG_frER2_XSP2: Attagene TRANS-FACTORIAL Multi-Species (XSP2) HepG2 Assay for frog Estrogen Receptor (ER2) (AID 2283828)
Method in brief: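 Cells were transfected with reporter constructs under GAL4-UAS control, dosed with chemicals for 24 h, then lysed for RNA; the frog ER2-driven reporter mRNA was quantified by capillary electrophoresis of labeled PCR fragments, with activity fitted upward from DMSO.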

[14] = tested on: zebrafish Estrogen Receptor (ER2a), gene 317734; experiment: ATG_zfER2a_XSP2: Attagene TRANS-FACTORIAL Multi-Species (XSP2) HepG2 Assay for zebrafish Estrogen Receptor (ER2a) (AID 2283818);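 also: hits raise reporter mRNA so AC50 reflects activation of zebrafish ER2a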
Method in brief: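 Multiplexed trans-reporter readout: RT-PCR then capillary electrophoresis of reporter transcripts after 24 h compound treatment. Human HepG2 carries transfected zebrafish ER2a-Gal4 chimera; 3 nM 6-alpha-fluorotestosterone plus 1.5 nM norgestrel present. Induction scored against DMSO.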

[15] = tested on: zebrafish Estrogen Receptor (ER2b), gene 317733; experiment: ATG_zfER2b_XSP2: Attagene TRANS-FACTORIAL Multi-Species (XSP2) HepG2 Assay for zebrafish Estrogen Receptor (ER2b) (AID 2283823);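 also: fitted upward as reporter gain over DMSO so potency reflects activation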
Method in brief: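 HepG2 human liver cells transiently transfected with multiplexed GAL4-UAS reporter units expressing chimeric NR-Gal4 proteins; compounds dosed for 24 h. Reporter mRNA quantified by RT-PCR, 6-FAM labelling and capillary electrophoresis; gain-of-signal fitted against DMSO baseline.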

[16] = target: Nuclear receptor subfamily 1 group I member 2 (Mus musculus) (UniProt O54915); experiment: ATG_mPXR_XSP2: Attagene TRANS-FACTORIAL Multi-Species (XSP1) HepG2 Assay for mouse Pregnane X Receptor (PXR) (AID 2283831)
Method in brief: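 Reporter transcripts measured after 24 h dosing by RT-PCR with 6-FAM labelling, HpaI digestion and capillary electrophoresis. Transiently transfected HepG2 with NR-Gal4 chimeras; increase over DMSO baseline scored.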

**Q.** For `O=c1cc(-c2ccccc2)oc2cc(O)cc(O)c12`, which AC50 [1] is on record?
**A.** inconclusive: 24800 nM

**Q.** And the AC50 [2]?
**A.** active: 1.51 µM

**Q.** What about the outcome [2] of the same compound?
**A.** inactive

**Q.** And the AC50 [3]?
**A.** active: 23800 nM

**Q.** And the outcome [3]?
**A.** inactive

**Q.** And the AC50 [4]?
**A.** inconclusive: 100000 nM

**Q.** What about the AC50 [5] of the same compound?
**A.** active: 1.19 µM

**Q.** What about the outcome [5] of the same compound?
**A.** inactive

**Q.** What about the outcome [6] of the same compound?
**A.** inactive

**Q.** And the outcome [7]?
**A.** inactive

**Q.** And the AC50 [8]?
**A.** active: 100 µM

**Q.** With `Clc1ccc(C(c2ccccc2Cl)C(Cl)Cl)cc1` (configuration not stated) as the compound, how does the AC50 [1] read?
**A.** inconclusive: 9.14 nM

**Q.** What about the AC50 [9] of the same compound?
**A.** active: 4.61 µM and active: 12.7 µM

**Q.** And the AC50 [2]?
**A.** inconclusive: 33.2 µM and inconclusive: 3.01 µM

**Q.** What about the AC50 [5] of the same compound?
**A.** inconclusive: 39.3 µM and inconclusive: 3.03 µM

**Q.** And the AC50 [6]?
**A.** inconclusive: 37800 nM

**Q.** And the AC50 [10]?
**A.** inconclusive: 277 nM

**Q.** What about the AC50 [7] of the same compound?
**A.** inconclusive: 100000 nM

**Q.** What about the AC50 [11] of the same compound?
**A.** inconclusive: 100 µM and inconclusive: 33.4 µM

**Q.** What does the source list for `O=c1c(O)c(-c2ccc(O)cc2)oc2cc(O)cc(O)c12`?
**A.** AC50 [1]: inconclusive: 100000 nM; AC50 [12]: active: 3 µM and active: 1.53 µM; AC50 [2]: active: 3.26 µM and active: 1.35 µM; AC50 [5]: active: 2.89 µM and active: 1.82 µM; AC50 [6]: inconclusive: 100000 nM; AC50 [13]: active: 1.75 µM and active: 945 nM; AC50 [7]: inconclusive: 260 nM

**Q.** Which results are given for `O=C(O)Cc1cc(I)c(Oc2ccc(O)c(I)c2)c(I)c1`?
**A.** AC50 [9]: inconclusive: 1 µM; AC50 [12]: inconclusive: 1 µM; AC50 [14]: inconclusive: 1000 nM; outcome [14]: inactive; AC50 [2]: inconclusive: 1.62 µM; outcome [2]: inactive; AC50 [15]: inconclusive: 1000 nM; outcome [5]: inactive; AC50 [13]: inconclusive: 1 µM; outcome [13]: inactive; AC50 [16]: inconclusive: 1000 nM; AC50 [10]: active: 6.02 nM; AC50 [11]: active: 3.28 nM; AC50 [8]: active: 0.504 nM and active: 5.79 nM

**Q.** For `O=C(c1ccc(O)cc1)c1ccc(O)cc1O`, which outcome [1] is on record?
**A.** inactive

**Q.** What about the AC50 [9] of the same compound?
**A.** active: 4.75 µM

**Q.** And the AC50 [2]?
**A.** active: 10 µM

**Q.** And the outcome [5]?
**A.** inactive

**Q.** And the AC50 [16]?
**A.** inconclusive: 4840 nM

**Q.** And the AC50 [7]?
**A.** inconclusive: 3.7 nM

**Q.** And the AC50 [11]?
**A.** inconclusive: 2370 nM
